Data published in patent publication US20080089894A1, “Transplant tolerance by costimulation blockade and T-cell activation-induced apoptosis” (priority 1998, published 2008).
At least one compound was matched to its structure with a doubt left.

System: BALB/c mouse heart allografts
Assay: BALB/c mouse heart allograft survival in C3H/He mice
Type: in vivo
Details: BALB/c heart allograft in C3H/He host; result in words
Procedure: A control group of three C3H/He mice received syngeneic transplants. The treatments were given as follows:
Group 1) Anti-CD40L+CTLA4-Ig
Anti-CD40L: 250 μg/injection i.v. (intravenous) on day 0, i.p. (intraperitoneal) on day +2, +4,
CTLA4-Ig: 200 μg/injection i.p. on day 0, +2, +4, +6.
Anti-CD40L: 250 μg/injection i.v. on day 0, i.p. on day +2, +4,
CTLA4-Ig: 200 μg/injection i.p. on day 0, +2, +4, +6,
Group 3) Anti-CD40L+CTLA4-Ig+RPM
CTLA4-Ig: 200 μg/injection i.p. on day 0, +2, +4, +6
RPM: 0.2 mg/kg/day i.p. on day 0, +1, +2, then every other day to day +14.
RPM: 0.2 mg/kg/day i.p. on day 0, +1, +2, then every other day to day +14. The hosts were checked daily for graft survival by palpitation. In addition, other mice were sacrificed for pathologic examination at various time points.

## CO[C@H]1C[C@@H]2CC[C@@H](C)[C@@](O)(O2)C(=O)C(=O)N2CCCC[C@H]2C(=O)O[C@H]([C@H](C)C[C@@H]2CC[C@@H](O)[C@H](OC)C2)CC(=O)[C@H](C)/C=C(\C)[C@@H](O)[C@@H](OC)C(=O)[C@H](C)C[C@H](C)/C=C/C=C/C=C/1C [RPM, rapamycin]
  Survival outcome of allograft recipients: all survived
